Experimental data taken from article PMC10352258.
Results are given in words; binding and its absence hold for the method and conditions named. In cells and extracts the contact can be indirect. For some assays here: Binding can be weak; no strength is given.

By UniProt entry, the sequences of proteins in these tests, tags left out. Where a name states a change or a piece, a line headed by the entry shows the natural chain unless it says otherwise.
UniProt O00560: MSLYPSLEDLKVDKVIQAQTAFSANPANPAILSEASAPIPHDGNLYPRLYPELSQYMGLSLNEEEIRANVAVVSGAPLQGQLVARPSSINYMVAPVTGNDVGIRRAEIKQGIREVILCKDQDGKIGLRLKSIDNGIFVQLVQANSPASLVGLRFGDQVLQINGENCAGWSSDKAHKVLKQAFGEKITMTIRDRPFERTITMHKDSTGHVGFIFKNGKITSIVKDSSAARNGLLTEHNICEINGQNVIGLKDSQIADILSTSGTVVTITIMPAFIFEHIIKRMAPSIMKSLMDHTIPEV

What was measured:
Flag-tagged SDCBP-△PDZ1 = Flag-tagged SDCBP-△PDZ1 (UniProt O00560); assay: co-IP; ESCC cells cotransfected with Flag-tagged SDCBP (wild type or truncation mutants) and Myc-tagged HSP90 (wild type or mutants)
Flag-tagged SDCBP-△PDZ2 = Flag-tagged SDCBP-△PDZ2 (UniProt O00560); assay: as above

“Myc-tagged HSP90 (wild type) (from UniProt P07900-2 1-854)” was tested, and the binding (Flag-tagged SDCBP-△PDZ1) was “binds” and the binding (Flag-tagged SDCBP-△PDZ2) was “no binding”.
